Screening data, single-dose tests

The values are deposited in ChEMBL (CHEMBL3988442, “University of Dundee, Small-Polar-MMV Screening Library” (2021)).

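Whole-parasite assay of Trypanosoma brucei over 72 hours; the read-out is not stated. Tested at 10 µM. Direction is inferred from retests: higher values go with stronger inhibition. Values scatter widely below zero; nearly all retest evidence comes from the higher of the two concentrations used. Size under these conditions: about 2,700 compounds, about 14 of them at 50% or above in at least one test.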

Values are the deposited “Percent Effect”, in %.
The controls that fix the scale are not given in the record; negative values are as filed.
The compounds are a random part of those screened.

Result for Cc1cc(CNC(=O)CN2CCCC(Cn3cncn3)C2)ccc1F (configuration not stated) was -6.652%. With Cc1cnc(C(=O)NCc2ccnc(N(C)C)c2)cn1 the screen gave -45.27%. COCCN1CCC(NCc2cccc(C)c2)C1 (configuration not stated) gave -54.08%. CCN(CCC1CCN(C(=O)NCc2nncn2CC)CC1)CC1CC1 gave -48.71%. With CC(c1nc(C2CC2)no1)N1CCN(Cc2noc(C3CC3)n2)CC1 (configuration not stated) the screen gave -16.28%. O=C(NCCc1cccnc1)Nc1cc(C(F)(F)F)c[nH]c1=O read -19.58%. For c1coc(-c2noc(CN3CCCC3Cn3cncn3)n2)c1 (configuration not stated) the result was 4.471%.

CCc1n[nH]c(C2CN(CCS(C)(=O)=O)CCO2)n1 (configuration not stated) read 0.9444%. CC(c1ccccc1Cl)N(C)Cc1nc2c(cnn2C)c(=O)[nH]1 (configuration not stated) gave -66.78%. Result for COc1cccc2cc(CNC(=O)N3CCC(N4CCCC4)C3)oc12 (configuration not stated) was -54.46%. Result for c1ccc(-c2nnc(CN3CCCC3Cn3cncn3)o2)cc1 (configuration not stated) was -29.75%. CC(O)CN1CCC(CNCc2ccc(OC(F)(F)F)cc2)CC1 (configuration not stated) gave 63.69%. With CCC1CCCCN1C(=O)c1ccnc(N(C)C)c1 (configuration not stated) the screen gave -23.45%. With CCc1ccc(C(=O)N2CCCC(n3nc(C)nc3C)C2)o1 (configuration not stated) the screen gave -18.78%.

O=C(CCCc1cccs1)N1CCC(N2CCNC2=O)CC1 gave -81.95%. With CCOc1ccc(C(=O)N2CCCC(n3nc(C)nc3C)C2)cc1 (configuration not stated) the screen gave -77.91%. For Cc1cc(CN(C)C(=O)c2ccc(F)c(C(F)(F)F)c2)no1 the result was -13.87%. COCCCNC(=O)CN(C)C(=O)c1cc2cc(C)ccc2nc1C read -48.79%. Cc1nn(C)c(N2CCOCC2)c1CNCc1ccccc1CO gave -51.41%. Result for O=C(NCCNc1ccccn1)N1CCC(O)CC1 was -78.01%. O=C(NCCc1ccc(Cl)s1)N1CCS(=O)(=O)CC1 read -12.35%.

For Cc1nc(C2CCCN2C(=O)CCCn2cncn2)no1 (configuration not stated) the result was -48.66%. For Cc1cnn(CC2CCCN2C(=O)CN(C)C2CC2)c1 (configuration not stated) the result was -9.965%. CCOCCCn1c(NC(=O)c2ccnc(C)n2)nc2ccccc21 read -13.79%. Cc1noc(C)c1C(=O)N1CCCC1c1c(C)nn(C)c1C (configuration not stated) read -4.265%. With CCc1n[nH]c(C2CN(C(=O)c3ccc4c(c3)CCC4)CCO2)n1 (configuration not stated) the screen gave -14.62%. With Cc1ccc(NC2CCN(C(=O)c3sccc3C3CC3)CC2)nn1 the screen gave -32.82%. CCc1c(C(=O)N2CCCC(N(C)C)C2)cnn1C(C)(C)C (configuration not stated) gave -47.47%.

CC(C)Oc1ccc(CNC(=O)NCc2ccncc2)cc1F read -44.65%. Result for Cc1ccc(N(CCC#N)C(=O)CN2CCCC2c2ccsc2)cc1 (configuration not stated) was -59.49%. Result for CCCc1noc(CCC(=O)N2CCCC2c2cccc(OC)c2)n1 (configuration not stated) was 3.206%. Result for CC(C)c1nn(C)c(N(C)C)c1CNCc1cccc2cccnc12.Cl was -16.98%. Result for Cc1ncncc1C(=O)N1CCCC(n2cccn2)C1 (configuration not stated) was -29.35%. O=S(=O)(CCNC1CCc2ncnn2C1)c1ccc(Cl)cc1 (configuration not stated) gave -53.65%. COCCNC(=O)CN1CCC(N2CCN(C)C2=O)CC1 read -2.312%.

With O=C(CN1CCc2c(ncn2C2CC2)C1)NC1CCOCC1 the screen gave -46.52%. Cc1cc(C)n(CC2CCCN2C(=O)c2cn[nH]c2C)n1 (configuration not stated) gave -62.1%. For Cc1nc(C)n(CC2CCCN2CCOc2ccccc2C#N)n1 (configuration not stated) the result was -5.639%. With CCOCC(O)CN1CCN(C(=O)c2ccccc2F)CC1 (configuration not stated) the screen gave -46.83%. CCc1ccc(C(CNC(=O)c2c(C)noc2C)N(C)C)cc1 (configuration not stated) read -15.68%. For Cc1ccc(NC2CCN(C(=O)c3ccc(F)c(C)c3)CC2)nn1 the result was -54.34%.